Consider 22 compounds from PubChem BioAssay AID330 (DTP/NCI, 2004).

The test deals with P388 leukemia ip, CD2F1 mice, survival T/C. In words: NCI In Vivo Anticancer Drug Screen. Data for tumor model P388 Leukemia (intraperitoneal) in CD2F1 (CDF1) mice. The following applies: T/C endpoint: median survival time, higher T/C = longer survival.
The mark [1] stands for this setting: dose: 6.25 mg/kg/injection, schedule: Q01DX009 (ip), vehicle: saline with Tween-80.
[2] abbreviates: dose: 25.0 mg/kg/injection, schedule: Q01DX009 (ip), vehicle: saline with Tween-80.
Where [3] appears, read: dose: 50.0 mg/kg/injection, schedule: Q01DX009 (ip), vehicle: saline with Tween-80.
Where [4] appears, read: dose: 100.0 mg/kg/injection, schedule: Q01DX009 (ip), vehicle: saline with Tween-80.
The mark [5] stands for this setting: dose: 200.0 mg/kg/injection, schedule: Q01DX009 (ip), vehicle: saline with Tween-80.
Setting [6] is: dose: 3.12 mg/kg/injection, schedule: Q01DX009 (ip), vehicle: saline.
Where [7] appears, read: dose: 6.25 mg/kg/injection, schedule: Q01DX009 (ip), vehicle: saline.
Where [8] appears, read: dose: 12.5 mg/kg/injection, schedule: Q01DX009 (ip), vehicle: saline.
The mark [9] stands for this setting: dose: 25.0 mg/kg/injection, schedule: Q01DX009 (ip), vehicle: saline.
The mark [10] stands for this setting: dose: 240.0 mg/kg/injection, schedule: Q01DX005 (ip), vehicle: saline with Tween-80.

The list is a part of this screen's results and no random one: it is rich in T/C values a quarter to a half above the control, in often repeated tests (any T/C) and in doses without a T/C. Further doses and runs are listed elsewhere. T/C: endpoint of the treated group in % of that of the vehicle group. Some entries give survivors of the animals treated and no T/C: the source files T/C as zero there, which appears to mark a toxic dose or a test without result, not a measured value. Some survivor counts are full or nearly so, which does not show that the dose was tolerated: survival well below the control is almost never listed, so the zero probably covers shortened survival too. Counts of survivors are from the toxicity check (mostly the fifth day) where no day follows; animals may have died later. Schedules are NCI's codes, taken here to give the interval after Q, in days (D) or hours (H), and the number of doses after X. Some doses were run more than once; the results are listed from low to high. Where survival is the endpoint, this PubChem deposit counts one and a half times the control or more as active, and values a quarter to a half above the control carry no call in these data; other NCI protocols may use other cut-offs. Some T/C values carry the count of animals alive at the toxicity check (mostly the fifth day); where none is given, no animal had died by that day.

As to `O=C(Nc1ccc(CCC2=NCCCN2)cc1)c1ccc(C(=O)Nc2ccc(CCC3=NCCCN3)cc2)cc1`, the T/C reads like this: (dose: 50.0 mg/kg/injection, schedule: Q01DX005 (ip), vehicle: saline with Tween-80) 125 % of control [5 of 6 alive]; (dose: 100.0 mg/kg/injection, schedule: Q01DX005 (ip), vehicle: saline with Tween-80) 133 and 148 % of control.
In the case of `CCCCCC(C)[P+](c1ccccc1)(c1ccccc1)c1ccccc1` (stereo unspecified), the T/C was 125 and 127 % of control (dose: 1.56 mg/kg/injection, schedule: Q01DX009 (ip), vehicle: saline with Tween-80); 127 and 140 % of control (dose: 3.13 mg/kg/injection, schedule: Q01DX009 (ip), vehicle: saline with Tween-80); 133 % of control under setting [1]. Moreover, the survivor count reads like this: under setting [1], 4 of 6; (dose: 12.5 mg/kg/injection, schedule: Q01DX009 (ip), vehicle: saline with Tween-80) 3 of 6; under setting [2], 1 of 6; under setting [3], 0 of 6; under setting [4], 0 of 6; under setting [5], 0 of 6.
As for `CC(=O)OC1C2CCC3C(C)(O)C4CC(O)C(C)(C)C4(O)C(O)CC13CC2(C)O` (stereo unspecified), the survivor count is on record as 2 of 6 (dose: 0.78 mg/kg/injection, schedule: Q01DX009 (ip), vehicle: saline); 0 of 6 (dose: 1.56 mg/kg/injection, schedule: Q01DX009 (ip), vehicle: saline); 0 of 6 (dose: 2.0 mg/kg/injection, schedule: Q01DX009 (ip), vehicle: saline); 0 of 6 under setting [6]; 0 of 6 under setting [7]; 0 of 6 under setting [8]. Further, the survivor count runs as follows: under setting [9], 0 of 6; (dose: 50.0 mg/kg/injection, schedule: Q01DX009 (ip), vehicle: saline) 0 of 6.
Take `N#CC(C#N)=C(C#N)c1ccccc1`: the survivor count under setting [3] is given as 3 of 6.
With `COc1ccc(/C=C/C(=N/Nc2ccccc2)C(C)CN(C)C)cc1` (stereo unspecified), the survivor count under setting [10] is reported as 0 of 6.
As to `COc1cc2c(c(OC)c1OC)-c1ccc(OC)c(=O)cc1C([N+](C)(C)C)CC2` (stereo unspecified), the survivor count (dose: 40.0 mg/kg/injection, schedule: Q01DX009 (ip), vehicle: Klucel (hydroxypropylcellulose) (HPC)) is 3 of 6.
Turning to `OC(c1cc2cc(Cl)c(Cl)cc2c2cc(C(F)(F)F)ccc12)C1CCCCN1` (stereo unspecified), the survivor count under setting [2] was 6 of 6, the survivor count under setting [3] is given as 2 of 6, the survivor count under setting [4] is given as 0 of 6 and the survivor count under setting [5] is 0 of 6.
Turning to `O=C1CSC(c2ccccc2F)N1c1ncccn1` (stereo unspecified), the T/C (dose: 200.0 mg/kg/injection, schedule: Q01DX005 (ip), vehicle: Klucel (hydroxypropylcellulose) (HPC)) was 135 % of control. The survivor count (dose: 400.0 mg/kg/injection, schedule: Q01DX005 (ip), vehicle: Klucel (hydroxypropylcellulose) (HPC)) is 0 of 6.
For `Cc1nc2nc(N)nc(N)c2nc1Sc1ccc(Cl)cc1`, the survivor count (dose: 100.0 mg/kg/injection, schedule: Q04DX003 (ip), vehicle: saline with Tween-80) is 6 of 6.
As for `N#Cc1c2c(c(N3CCCCC3)n3c1nc1ccccc13)CCC2`, the survivor count by setting is: (dose: 120.0 mg/kg/injection, schedule: Q01DX005 (ip), vehicle: saline with Tween-80) 6 of 6; under setting [10], 6 of 6.
For the compound `C[Si](C)(C)O/C=C1\CCCCC1=O`, the survivor count under setting [5] was 3 of 6.
Take `N#Cc1ccc(OC(=O)Nc2ccc(F)cc2)cc1`: under setting [10], the survivor count is listed as 4 of 6.
Regarding `ClC(Cl)=C(Cl)C(Cl)=C(Cl)Cl`, the survivor count (dose: 200.0 mg/kg/injection, schedule: Q01DX001 (ip), vehicle: saline) was 3 of 6.
On to `C[n+]1c(/C=N/NC(N)=S)ccc2ccccc21`, for which the T/C under setting [3] was 125 % of control. The survivor count under setting [5] is 0 of 6.
As for `CN(Cc1cnc2nc(N)nc(N)c2c1)c1ccc(C(=O)NC(CCC(=O)O)C(=O)O)cc1` (stereo unspecified), the T/C is 137 % of control (dose: 0.5 mg/kg/injection, schedule: Q01DX005 (ip), vehicle: other) and 136 % of control (dose: 1.0 mg/kg/injection, schedule: Q01DX005 (ip), vehicle: other). Also, the survivor count (dose: 8.0 mg/kg/injection, schedule: Q01DX005 (ip), vehicle: other) was 5 of 5 and 7 of 7.
For the compound `COc1cc(NC(C)=O)c(OC)c2c(Cl)ccnc12`, the survivor count (dose: 400.0 mg/kg/injection, schedule: Q01DX001 (ip), vehicle: acid diluted with saline) was 0 of 6.
On to `c1ccc(O[Si](Oc2ccccc2)(Oc2ccccc2)Oc2ccccc2)cc1`, for which the survivor count (dose: 200.0 mg/kg/injection, schedule: Q01DX009 (ip), vehicle: other) was 5 of 6.
For the compound `O=C1c2ccccc2C(=O)N1CCC[P+](c1ccccc1)(c1ccccc1)c1ccccc1`, the T/C was 131 % of control under setting [6], 138 % of control under setting [7] and 138 % of control under setting [8]. Besides, the survivor count under setting [9] was 5 of 6.
As to `CC1=C(CCCCCCCCCCCCCCC(C)O)C(=O)OC1=O` (stereo unspecified), under “dose: 25.0 mg/kg/injection, schedule: Q01DX005 (ip), vehicle: Klucel (hydroxypropylcellulose) (HPC)”, the survivor count is 5 of 5.
Consider `CN1CCC(=C2c3ccccc3CC(O)c3sccc32)CC1` (stereo unspecified), for which the survivor count (dose: 400.0 mg/kg/injection, schedule: Q04DX003 (ip), vehicle: saline with Tween-80) is 2 of 6.
Regarding `COc1ccc2c(Cl)cc(NC(=S)Nc3ccccc3)nc2c1`, the survivor count by setting is: (dose: 50.0 mg/kg/injection, schedule: Q01DX009 (ip), vehicle: Klucel (hydroxypropylcellulose) (HPC)) 0 of 6; (dose: 100.0 mg/kg/injection, schedule: Q01DX009 (ip), vehicle: Klucel (hydroxypropylcellulose) (HPC)) 0 of 6; (dose: 200.0 mg/kg/injection, schedule: Q01DX009 (ip), vehicle: Klucel (hydroxypropylcellulose) (HPC)) 0 of 6.
Regarding `COC1C=COC2(C)Oc3c(C)c(O)c4c(O)c(c(C5SCCS5)c(O)c4c3C2=O)NC(=O)/C(C)=C\C=CC(C)C(O)C(C)C(O)C(C)C(OC(C)=O)C1C` (stereo unspecified), the T/C under setting [4] is 129 % of control.
